Laboratory results: the supplement of paper PMC12067093, “Discovery and optimisation of a covalent ligand for TRIM25 and its application to targeted protein ubiquitination” (Chemical Science, 2025)
Some of the results follow.

Amino acid sequences for entries named in this document (tags omitted). A change or cut given only in a name is not applied to a line headed by its entry.
UniProt Q8N3U4: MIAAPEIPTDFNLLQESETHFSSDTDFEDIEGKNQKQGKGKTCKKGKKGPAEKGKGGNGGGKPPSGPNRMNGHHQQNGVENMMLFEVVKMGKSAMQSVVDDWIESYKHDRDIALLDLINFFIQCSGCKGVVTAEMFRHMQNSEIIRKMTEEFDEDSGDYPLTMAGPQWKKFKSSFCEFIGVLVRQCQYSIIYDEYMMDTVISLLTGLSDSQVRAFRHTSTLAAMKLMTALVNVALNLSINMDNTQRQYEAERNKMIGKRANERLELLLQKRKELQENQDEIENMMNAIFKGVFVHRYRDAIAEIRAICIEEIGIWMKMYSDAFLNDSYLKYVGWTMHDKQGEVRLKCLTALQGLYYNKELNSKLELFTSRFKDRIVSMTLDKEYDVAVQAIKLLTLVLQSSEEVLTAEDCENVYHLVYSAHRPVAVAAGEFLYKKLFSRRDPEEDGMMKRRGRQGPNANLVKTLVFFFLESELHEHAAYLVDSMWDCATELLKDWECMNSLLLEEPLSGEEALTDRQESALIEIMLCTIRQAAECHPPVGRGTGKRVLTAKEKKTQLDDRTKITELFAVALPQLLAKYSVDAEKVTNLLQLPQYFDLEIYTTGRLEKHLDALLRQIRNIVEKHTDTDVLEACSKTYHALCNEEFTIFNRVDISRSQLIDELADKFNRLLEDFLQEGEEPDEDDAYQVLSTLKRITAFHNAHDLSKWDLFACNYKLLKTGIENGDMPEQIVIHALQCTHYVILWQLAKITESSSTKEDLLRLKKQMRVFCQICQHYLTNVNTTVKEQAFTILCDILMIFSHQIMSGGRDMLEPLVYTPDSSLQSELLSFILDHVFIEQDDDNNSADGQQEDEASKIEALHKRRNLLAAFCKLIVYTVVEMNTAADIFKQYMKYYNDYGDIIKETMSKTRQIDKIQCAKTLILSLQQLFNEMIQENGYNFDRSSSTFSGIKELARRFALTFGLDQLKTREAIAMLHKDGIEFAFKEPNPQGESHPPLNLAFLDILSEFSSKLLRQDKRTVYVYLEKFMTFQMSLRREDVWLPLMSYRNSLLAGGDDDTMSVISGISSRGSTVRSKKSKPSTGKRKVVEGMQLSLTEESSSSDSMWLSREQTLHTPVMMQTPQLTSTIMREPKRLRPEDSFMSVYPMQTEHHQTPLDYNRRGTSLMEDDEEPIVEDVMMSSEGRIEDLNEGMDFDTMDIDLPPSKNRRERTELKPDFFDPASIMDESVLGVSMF
UniProt Q15833: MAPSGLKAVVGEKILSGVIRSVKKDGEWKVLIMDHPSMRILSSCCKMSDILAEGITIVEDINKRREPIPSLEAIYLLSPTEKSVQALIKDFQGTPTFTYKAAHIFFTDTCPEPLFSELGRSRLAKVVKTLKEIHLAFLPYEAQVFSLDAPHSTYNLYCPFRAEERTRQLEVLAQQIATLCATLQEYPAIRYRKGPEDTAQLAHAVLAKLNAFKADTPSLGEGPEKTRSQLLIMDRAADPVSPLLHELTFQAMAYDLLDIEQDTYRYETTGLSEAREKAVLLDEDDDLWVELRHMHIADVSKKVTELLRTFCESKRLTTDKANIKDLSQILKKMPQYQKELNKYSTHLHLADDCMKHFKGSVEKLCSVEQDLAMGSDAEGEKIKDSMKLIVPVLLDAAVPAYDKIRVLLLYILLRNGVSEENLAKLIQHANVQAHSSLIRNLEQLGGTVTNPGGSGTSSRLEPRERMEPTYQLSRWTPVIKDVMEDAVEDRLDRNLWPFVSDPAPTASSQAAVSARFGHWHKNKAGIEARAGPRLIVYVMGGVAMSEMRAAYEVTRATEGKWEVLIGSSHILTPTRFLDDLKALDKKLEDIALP
UniProt Q9BXP5: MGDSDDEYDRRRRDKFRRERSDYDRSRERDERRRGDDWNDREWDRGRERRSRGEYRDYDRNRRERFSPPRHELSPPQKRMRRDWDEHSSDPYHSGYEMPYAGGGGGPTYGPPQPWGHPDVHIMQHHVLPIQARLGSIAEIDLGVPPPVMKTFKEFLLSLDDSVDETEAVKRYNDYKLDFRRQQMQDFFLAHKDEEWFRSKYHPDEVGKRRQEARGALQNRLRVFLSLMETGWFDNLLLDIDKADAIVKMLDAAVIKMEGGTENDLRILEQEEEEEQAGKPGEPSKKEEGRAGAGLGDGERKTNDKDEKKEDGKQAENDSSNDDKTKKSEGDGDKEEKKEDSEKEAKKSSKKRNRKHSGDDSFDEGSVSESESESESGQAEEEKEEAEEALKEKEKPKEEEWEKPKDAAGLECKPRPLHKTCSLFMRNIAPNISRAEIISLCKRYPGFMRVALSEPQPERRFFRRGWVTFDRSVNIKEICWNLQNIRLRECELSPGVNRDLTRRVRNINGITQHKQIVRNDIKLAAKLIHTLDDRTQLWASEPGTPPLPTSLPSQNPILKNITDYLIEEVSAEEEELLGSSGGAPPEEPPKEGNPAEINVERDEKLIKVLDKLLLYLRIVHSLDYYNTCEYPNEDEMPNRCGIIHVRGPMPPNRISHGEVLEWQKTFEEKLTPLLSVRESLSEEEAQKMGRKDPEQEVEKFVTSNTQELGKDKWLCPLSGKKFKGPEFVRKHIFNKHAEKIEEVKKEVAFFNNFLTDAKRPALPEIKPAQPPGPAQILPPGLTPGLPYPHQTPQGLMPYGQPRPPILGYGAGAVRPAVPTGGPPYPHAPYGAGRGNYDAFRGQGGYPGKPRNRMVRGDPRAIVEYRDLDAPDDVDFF
UniProt Q86UX6: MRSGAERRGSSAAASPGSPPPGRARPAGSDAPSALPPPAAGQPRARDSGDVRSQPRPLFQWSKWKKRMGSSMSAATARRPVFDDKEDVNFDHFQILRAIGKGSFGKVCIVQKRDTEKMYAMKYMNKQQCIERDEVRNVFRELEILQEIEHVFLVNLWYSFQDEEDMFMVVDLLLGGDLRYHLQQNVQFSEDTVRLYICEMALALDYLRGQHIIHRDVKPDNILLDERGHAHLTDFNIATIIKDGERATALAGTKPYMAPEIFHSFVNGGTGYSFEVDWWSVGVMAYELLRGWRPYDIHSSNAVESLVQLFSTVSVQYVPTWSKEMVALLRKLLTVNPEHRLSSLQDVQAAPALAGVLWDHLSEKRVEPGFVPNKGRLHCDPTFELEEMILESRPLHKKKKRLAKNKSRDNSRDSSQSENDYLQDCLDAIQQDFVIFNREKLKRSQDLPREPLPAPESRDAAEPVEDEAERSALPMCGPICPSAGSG
UniProt O94804: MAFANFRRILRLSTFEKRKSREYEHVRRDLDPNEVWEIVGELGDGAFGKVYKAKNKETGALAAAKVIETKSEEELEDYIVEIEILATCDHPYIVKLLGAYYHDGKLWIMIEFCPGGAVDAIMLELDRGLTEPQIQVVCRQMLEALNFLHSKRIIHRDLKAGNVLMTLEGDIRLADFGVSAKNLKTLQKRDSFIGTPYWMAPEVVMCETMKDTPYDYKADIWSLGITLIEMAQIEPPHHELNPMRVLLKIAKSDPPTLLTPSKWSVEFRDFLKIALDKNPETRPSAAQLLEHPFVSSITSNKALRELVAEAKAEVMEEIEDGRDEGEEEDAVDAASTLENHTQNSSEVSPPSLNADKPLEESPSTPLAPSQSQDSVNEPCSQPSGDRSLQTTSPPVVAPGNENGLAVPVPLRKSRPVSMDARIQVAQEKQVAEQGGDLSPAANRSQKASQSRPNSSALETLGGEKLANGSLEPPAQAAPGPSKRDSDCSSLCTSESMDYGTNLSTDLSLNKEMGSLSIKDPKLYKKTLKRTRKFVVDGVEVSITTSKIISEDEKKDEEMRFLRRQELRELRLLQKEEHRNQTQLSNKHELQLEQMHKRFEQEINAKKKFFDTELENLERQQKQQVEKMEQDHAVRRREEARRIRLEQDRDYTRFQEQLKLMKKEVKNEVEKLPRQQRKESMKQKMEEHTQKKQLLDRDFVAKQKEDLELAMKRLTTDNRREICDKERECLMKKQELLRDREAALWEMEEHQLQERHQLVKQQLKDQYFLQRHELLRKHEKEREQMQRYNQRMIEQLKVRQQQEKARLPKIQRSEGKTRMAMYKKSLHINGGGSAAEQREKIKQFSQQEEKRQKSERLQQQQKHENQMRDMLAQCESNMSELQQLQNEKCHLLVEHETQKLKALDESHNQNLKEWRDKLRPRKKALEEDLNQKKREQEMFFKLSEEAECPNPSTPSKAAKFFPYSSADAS
UniProt O95630, whole entry, looked up: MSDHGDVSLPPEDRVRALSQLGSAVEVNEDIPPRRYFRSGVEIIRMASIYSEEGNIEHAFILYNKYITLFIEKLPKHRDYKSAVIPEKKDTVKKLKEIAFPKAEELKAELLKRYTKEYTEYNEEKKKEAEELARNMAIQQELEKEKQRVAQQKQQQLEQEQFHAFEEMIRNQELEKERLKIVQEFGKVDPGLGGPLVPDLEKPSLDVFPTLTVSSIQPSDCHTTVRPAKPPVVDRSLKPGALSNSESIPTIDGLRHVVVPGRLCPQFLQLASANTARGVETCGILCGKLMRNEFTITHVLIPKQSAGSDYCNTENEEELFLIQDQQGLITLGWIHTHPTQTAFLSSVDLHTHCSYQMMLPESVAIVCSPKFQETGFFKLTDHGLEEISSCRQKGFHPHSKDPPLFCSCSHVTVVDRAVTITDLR
UniProt Q8IYB3: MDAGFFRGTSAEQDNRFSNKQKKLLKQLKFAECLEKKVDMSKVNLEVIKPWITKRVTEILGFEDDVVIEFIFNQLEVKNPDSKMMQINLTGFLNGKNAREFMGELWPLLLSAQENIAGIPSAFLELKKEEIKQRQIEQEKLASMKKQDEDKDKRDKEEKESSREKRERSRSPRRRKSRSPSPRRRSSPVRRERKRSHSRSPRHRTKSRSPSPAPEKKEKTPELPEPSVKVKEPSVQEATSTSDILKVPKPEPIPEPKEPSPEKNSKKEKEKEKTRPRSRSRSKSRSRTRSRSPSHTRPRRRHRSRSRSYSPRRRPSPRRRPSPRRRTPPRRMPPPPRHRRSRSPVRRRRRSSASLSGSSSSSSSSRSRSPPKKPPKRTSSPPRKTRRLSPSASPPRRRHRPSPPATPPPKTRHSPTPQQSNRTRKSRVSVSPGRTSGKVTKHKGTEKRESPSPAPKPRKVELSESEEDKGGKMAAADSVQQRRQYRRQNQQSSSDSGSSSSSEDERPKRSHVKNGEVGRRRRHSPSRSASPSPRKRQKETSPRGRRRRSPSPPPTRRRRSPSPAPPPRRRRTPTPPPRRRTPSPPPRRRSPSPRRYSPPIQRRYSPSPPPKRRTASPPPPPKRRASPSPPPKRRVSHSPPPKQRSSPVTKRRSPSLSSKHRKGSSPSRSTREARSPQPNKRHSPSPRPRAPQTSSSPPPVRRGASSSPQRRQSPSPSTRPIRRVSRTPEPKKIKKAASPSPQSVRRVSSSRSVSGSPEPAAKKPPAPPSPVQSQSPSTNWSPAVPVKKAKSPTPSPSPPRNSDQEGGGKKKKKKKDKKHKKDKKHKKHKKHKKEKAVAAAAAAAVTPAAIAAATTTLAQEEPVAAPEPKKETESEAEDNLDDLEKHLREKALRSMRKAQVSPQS
UniProt Q8IX01: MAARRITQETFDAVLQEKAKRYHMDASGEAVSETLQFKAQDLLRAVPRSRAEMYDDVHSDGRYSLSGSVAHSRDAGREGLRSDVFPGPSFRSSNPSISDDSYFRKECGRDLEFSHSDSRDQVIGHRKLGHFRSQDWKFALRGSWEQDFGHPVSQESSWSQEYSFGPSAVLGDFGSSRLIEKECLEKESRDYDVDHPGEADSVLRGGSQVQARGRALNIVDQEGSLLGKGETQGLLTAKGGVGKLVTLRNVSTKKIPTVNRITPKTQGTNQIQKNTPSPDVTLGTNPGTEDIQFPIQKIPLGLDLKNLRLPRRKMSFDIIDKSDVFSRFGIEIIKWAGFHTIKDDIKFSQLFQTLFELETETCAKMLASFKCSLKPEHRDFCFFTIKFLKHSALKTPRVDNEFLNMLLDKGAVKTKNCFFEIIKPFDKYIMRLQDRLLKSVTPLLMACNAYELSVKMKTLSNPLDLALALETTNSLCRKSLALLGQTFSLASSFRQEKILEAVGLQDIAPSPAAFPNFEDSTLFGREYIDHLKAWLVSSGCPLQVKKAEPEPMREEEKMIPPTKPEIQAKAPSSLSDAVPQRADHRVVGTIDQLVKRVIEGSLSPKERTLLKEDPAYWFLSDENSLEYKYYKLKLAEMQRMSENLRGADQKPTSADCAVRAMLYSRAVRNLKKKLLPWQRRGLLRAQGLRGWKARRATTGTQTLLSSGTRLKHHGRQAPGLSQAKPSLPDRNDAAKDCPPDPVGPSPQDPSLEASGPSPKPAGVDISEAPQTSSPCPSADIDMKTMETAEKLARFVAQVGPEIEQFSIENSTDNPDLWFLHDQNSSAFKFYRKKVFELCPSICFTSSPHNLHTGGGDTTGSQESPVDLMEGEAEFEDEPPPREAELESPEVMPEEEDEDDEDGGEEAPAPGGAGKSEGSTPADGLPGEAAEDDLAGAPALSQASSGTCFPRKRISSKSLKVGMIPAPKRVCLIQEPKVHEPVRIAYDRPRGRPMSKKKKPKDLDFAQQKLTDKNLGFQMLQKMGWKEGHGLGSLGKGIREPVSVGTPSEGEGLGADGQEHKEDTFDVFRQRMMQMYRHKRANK

compound: Cc1cc(ccc1-c1ccccc1)C(=O)N1CCCN(CC1)C(=O)CCl [compound 10]; assay: probe-labelled cysteine peptide fold change vs DMSO (competition) (log2 fold change); higher = less target engagement (more negative = stronger competition); conditions: 10 µM; THP-1; incubation time: 4 h
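Note: competitive profiling in live THP-1 cells: cysteine peptides tagged with an iodoacetamide desthiobiotin (IA-DTB) probe, intensity after compound treatment relative to DMSO-treated cells.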

Target | probe-labelled cysteine peptide fold change
STAT6_P42226_452_MCETLNLK (UniProt P42226) | 0.0597
STAG1_Q8WVM7_531_QESALIELMVCTIR (UniProt Q8WVM7) | 0.212
SRRM2_Q9UQ35_1016_SPCPQEK (UniProt Q9UQ35) | -0.183
STAG2_Q8N3U4_176_SSFCEFIGVLVR (UniProt Q8N3U4) | 0.175
STXBP5_Q5T5C0_933_VISLPTQNCAYK (UniProt Q5T5C0) | 0.186
STAT2_P52630_323_AFVVETQPCMPQTPHRPLILK (UniProt P52630) | 0.0723
STXBP2_Q15833_110_AAHIFFTDTCPEPLFSELGR (UniProt Q15833) | 0.0186
SRRT_Q9BXP5_490_LRECELSPGVNR (UniProt Q9BXP5) | -0.201
STK32C_Q86UX6_379_LHCDPTFELEEMILESRPLHK (UniProt Q86UX6) | -0.136
SYAP1_Q96A49_283_TQEDEEEISTSPGVSEFVSDAFDACNLNQEDLRK (UniProt Q96A49) | 0.273
STRN4_Q9NRL3_733_KHEEAIHAVACHPSK (UniProt Q9NRL3) | -0.0666
STAT2_P52630_676_DEAFGCYYQEK (UniProt P52630) | -0.0339
STK24_Q9Y6E0_415_GAIYLAEEACPGISDTMVAQLVQR (UniProt Q9Y6E0) | 0.117
STK10_O94804_947_LSEEAECPNPSTPSK (UniProt O94804) | -0.0774
SWAP70_Q9UH65_40_VLSHNLCTVLK (UniProt Q9UH65) | 0.0511
STAMBP_O95630_282_GVETCGILCGK (UniProt O95630) | 0.163
STK16_O75716_174_DLKPTNILLGDEGQPVLMDLGSMNQACIHVEGSR (UniProt O75716) | -0.00387
SRRM1_Q8IYB3_33_FAECLEK (UniProt Q8IYB3) | 0.124

same assay, conditions: 50 µM; THP-1; incubation time: 4 h

Target | probe-labelled cysteine peptide fold change
STUB1_Q9UNE7_83_MQQHEQALADCRR (UniProt Q9UNE7) | -0.0798
STAT3_P40763_542_LLGPGVNYSGCQITWAK (UniProt P40763) | -0.0741
STXBP3_O00186_90_SVDCFLHDFASK (UniProt O00186) | -0.222
STBD1_O95210_337_WEECSNR (UniProt O95210) | 0.353
SRSF7_Q16629_106+109_CYECGEK (UniProt Q16629) | 0.219
SUPV3L1_Q8IYB8_587_KQPFVCSSLLQFAR (UniProt Q8IYB8) | 0.0326
SSU72_Q9NP77_111_DLFDLILTCEER (UniProt Q9NP77) | -0.0928
SUGP2_Q8IX01_970_VCLIQEPK (UniProt Q8IX01) | 0.112
STK26_Q9P289_392_SIAVAEAACPGITDK (UniProt Q9P289) | -0.0937
SSB_P05455_245_FSGDLDDQTCREDLHILFSNHGEIK (UniProt P05455) | -0.267
STAT2_P52630_74_CSQDPESLLLQHNLR (UniProt P52630) | -0.188
SUGP2_Q8IX01_656_GADQKPTSADCAVR (UniProt Q8IX01) | -0.168
STT3A_P46977_637_EGSPVLLNCLMYK (UniProt P46977) | 0.318
STRADA_Q7RTN6_107_INLEACSNEMVTFLQGELHVSK (UniProt Q7RTN6) | 0.345
SRRT_Q9BXP5_715_WLCPLSGKK (UniProt Q9BXP5) | -0.657
SYK_P43405_89_THASPADLCHYHSQESDGLVCLLK (UniProt P43405) | -0.0785
SUMO1_P63165_52_ESYCQR (UniProt P63165) | 0.237
STAT6_P42226_452_MCETLNLK (UniProt P42226) | 0.014

Target | probe-labelled cysteine peptide fold change
STAG1_Q8WVM7_531_QESALIELMVCTIR (UniProt Q8WVM7) | 0.416
SRRM2_Q9UQ35_1016_SPCPQEK (UniProt Q9UQ35) | -0.221
STAG2_Q8N3U4_176_SSFCEFIGVLVR (UniProt Q8N3U4) | 0.43
STXBP5_Q5T5C0_933_VISLPTQNCAYK (UniProt Q5T5C0) | 0.107
STAT2_P52630_323_AFVVETQPCMPQTPHRPLILK (UniProt P52630) | 0.181
STXBP2_Q15833_110_AAHIFFTDTCPEPLFSELGR (UniProt Q15833) | 0.272
SRRT_Q9BXP5_490_LRECELSPGVNR (UniProt Q9BXP5) | 0.0335
STK32C_Q86UX6_379_LHCDPTFELEEMILESRPLHK (UniProt Q86UX6) | -0.226
SYAP1_Q96A49_283_TQEDEEEISTSPGVSEFVSDAFDACNLNQEDLRK (UniProt Q96A49) | 0.338
STRN4_Q9NRL3_733_KHEEAIHAVACHPSK (UniProt Q9NRL3) | 0.103
STAT2_P52630_676_DEAFGCYYQEK (UniProt P52630) | 0.128
STK24_Q9Y6E0_415_GAIYLAEEACPGISDTMVAQLVQR (UniProt Q9Y6E0) | 0.111
STK10_O94804_947_LSEEAECPNPSTPSK (UniProt O94804) | -0.445
SWAP70_Q9UH65_40_VLSHNLCTVLK (UniProt Q9UH65) | -0.000772
STAMBP_O95630_282_GVETCGILCGK (UniProt O95630) | -0.0572
STK16_O75716_174_DLKPTNILLGDEGQPVLMDLGSMNQACIHVEGSR (UniProt O75716) | -0.0622
SRRM1_Q8IYB3_33_FAECLEK (UniProt Q8IYB3) | -0.144
